Experimental findings from US20050250143A1 are described below.

Chains of the proteins cited; added tags and fusions are not shown. Lines headed by an entry give the natural chain unless they say otherwise; changes in a name come on top.
UniProt Q96EZ8: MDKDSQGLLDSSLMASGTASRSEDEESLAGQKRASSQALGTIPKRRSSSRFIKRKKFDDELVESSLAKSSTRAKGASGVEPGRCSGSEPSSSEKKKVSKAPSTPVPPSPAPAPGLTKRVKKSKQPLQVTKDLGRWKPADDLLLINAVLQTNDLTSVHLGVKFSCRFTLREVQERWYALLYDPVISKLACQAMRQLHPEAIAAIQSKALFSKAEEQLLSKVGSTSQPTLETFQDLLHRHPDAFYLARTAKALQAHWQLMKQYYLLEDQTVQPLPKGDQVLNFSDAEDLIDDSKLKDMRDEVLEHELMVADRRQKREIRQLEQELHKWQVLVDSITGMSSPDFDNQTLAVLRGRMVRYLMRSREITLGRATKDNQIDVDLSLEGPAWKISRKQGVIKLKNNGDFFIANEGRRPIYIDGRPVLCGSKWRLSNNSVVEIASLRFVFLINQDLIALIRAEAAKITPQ

Test [1] addresses T1, GST-MEKK1 protein (plasmid pBCGST-MEKK1) (UniProt P53349).
T1 sequence (looked up): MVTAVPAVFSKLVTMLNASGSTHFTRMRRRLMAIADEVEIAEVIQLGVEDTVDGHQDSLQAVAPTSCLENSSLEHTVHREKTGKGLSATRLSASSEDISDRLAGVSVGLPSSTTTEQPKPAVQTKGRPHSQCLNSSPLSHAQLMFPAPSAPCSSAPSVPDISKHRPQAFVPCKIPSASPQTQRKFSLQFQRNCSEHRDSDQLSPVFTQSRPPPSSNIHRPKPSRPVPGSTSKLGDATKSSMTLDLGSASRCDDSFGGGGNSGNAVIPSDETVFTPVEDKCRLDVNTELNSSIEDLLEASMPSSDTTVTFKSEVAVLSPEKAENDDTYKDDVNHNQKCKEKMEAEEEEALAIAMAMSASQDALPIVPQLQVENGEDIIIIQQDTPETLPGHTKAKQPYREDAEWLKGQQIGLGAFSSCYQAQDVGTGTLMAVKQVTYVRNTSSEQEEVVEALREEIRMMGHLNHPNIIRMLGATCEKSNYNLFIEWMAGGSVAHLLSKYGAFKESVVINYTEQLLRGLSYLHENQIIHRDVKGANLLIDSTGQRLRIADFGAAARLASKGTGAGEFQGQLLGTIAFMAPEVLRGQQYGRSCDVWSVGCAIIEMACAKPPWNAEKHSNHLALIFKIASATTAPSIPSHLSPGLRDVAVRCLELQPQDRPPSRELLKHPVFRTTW
Kind of test: GST pull-down on GSH-sepharose from CHOMIF1/MSP58#34 cells, Western blot with anti-myc antibody.

Test [2] addresses T1, GST-MEKK1 protein (plasmid pBCGST-MEKK1). The experiment in a line: GST pull-down on GSH-sepharose from CHOMIF1 #34 cells with or without 200 mM sorbitol, Western blot with anti-myc antibody.

No constants are given. Whether binding was seen depends on the method and setting. Binding seen in cells or lysates may run through a third protein. Some entries that bind do so weakly or less than the wild type. Sequences can lack the tags named with a protein.

Consider “Myc-tagged MIF1/MSP58 protein (plasmid pCM562), expressed in CHO stable clone #34 (from UniProt Q96EZ8 1-462)”, for which the binding result in test [1] and in test [2] was “binds” in each case.
